Taken from: PubChem BioAssay AID1508597 (Cure First, 2020)

Purpose: 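Genes whose silencing sensitises or protects ovarian cancer cells against rucaparib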 (primary screen)
Cell system: human ovarian carcinoma lines grown from tumours: OCI-P5x (papillary serous) and OCI-C5x (clear cell)
Reagents: siRNA pool against human genes, 1.25 pmol siRNA per well
Time to read-out: 72 h or 96 h, depending on the cell culture
Challenge: rucaparib 20 µM (about IC30) or vehicle, present until read-out
Measurement: 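Luminescent ATP-based viability assay read 72 or 96 h after transfection, depending on culture, given as normalised percent viability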
Reading the numbers: viability, normalised: higher = more viable cells remaining
Hit rule: 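a well counts as a hit if its normalised viability is under 80 percent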
Meaning of the calls: active = viability under 80%; inactive = viability 80% or more
In all, the deposit lists about 2,100 reagents; this is a part drawn at random. 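Calls flag viability under 80% in either arm, not effects specific to rucaparib; the reference for percent is not stated.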 Not given: the 100% reference.

no.	gene	PubChem SID	rucaparib or vehicle	cell line	technical replicate	viability, normalised (%)	Call
1	CNP (GeneID 1267)	SID405526664	Rucaparib	OCI-C5x (clear cell)	1	69.8	active
2	CNP (GeneID 1267)	SID405526664	Rucaparib	OCI-C5x (clear cell)	2	49.7	active
3	CNP (GeneID 1267)	SID405526664	Rucaparib	OCI-C5x (clear cell)	3	51.8	active
4	CNP (GeneID 1267)	SID405526664	Rucaparib	OCI-P5x (serous)	1	57.8	active
5	CNP (GeneID 1267)	SID405526664	Rucaparib	OCI-P5x (serous)	2	63.7	active
6	CNP (GeneID 1267)	SID405526664	Rucaparib	OCI-P5x (serous)	3	58.3	active
7	CNP (GeneID 1267)	SID405526664	Vehicle	OCI-C5x (clear cell)	1	59	active
8	CNP (GeneID 1267)	SID405526664	Vehicle	OCI-C5x (clear cell)	2	55.9	active
9	CNP (GeneID 1267)	SID405526664	Vehicle	OCI-C5x (clear cell)	3	51.6	active
10	CNP (GeneID 1267)	SID405526664	Vehicle	OCI-P5x (serous)	1	73.8	active
11	CNP (GeneID 1267)	SID405526664	Vehicle	OCI-P5x (serous)	2	71.1	active
12	CNP (GeneID 1267)	SID405526664	Vehicle	OCI-P5x (serous)	3	70.6	active
13	DDX31 (GeneID 64794)	SID405528183	Rucaparib	OCI-C5x (clear cell)	1	68.2	active
14	DDX31 (GeneID 64794)	SID405528183	Rucaparib	OCI-C5x (clear cell)	2	58	active
15	DDX31 (GeneID 64794)	SID405528183	Rucaparib	OCI-C5x (clear cell)	3	62.7	active
16	DDX31 (GeneID 64794)	SID405528183	Rucaparib	OCI-P5x (serous)	1	61.2	active
17	DDX31 (GeneID 64794)	SID405528183	Rucaparib	OCI-P5x (serous)	2	62.9	active
18	DDX31 (GeneID 64794)	SID405528183	Rucaparib	OCI-P5x (serous)	3	51.1	active
19	DDX31 (GeneID 64794)	SID405528183	Vehicle	OCI-C5x (clear cell)	1	47.8	active
20	DDX31 (GeneID 64794)	SID405528183	Vehicle	OCI-C5x (clear cell)	2	48.1	active
21	DDX31 (GeneID 64794)	SID405528183	Vehicle	OCI-C5x (clear cell)	3	56.1	active
22	DDX31 (GeneID 64794)	SID405528183	Vehicle	OCI-P5x (serous)	1	71.9	active
23	DDX31 (GeneID 64794)	SID405528183	Vehicle	OCI-P5x (serous)	2	75.8	active
24	DDX31 (GeneID 64794)	SID405528183	Vehicle	OCI-P5x (serous)	3	68.8	active

2 of these entries in another layout.
gene,PubChem SID,rucaparib or vehicle,cell line,technical replicate,"viability, normalised (%)",Call
DDX31 (GeneID 64794),SID405528183,Rucaparib,OCI-P5x (serous),2,62.9,active
DDX31 (GeneID 64794),SID405528183,Rucaparib,OCI-P5x (serous),3,51.1,active
